The source of these data is the supplement of paper PMC12067093, “Discovery and optimisation of a covalent ligand for TRIM25 and its application to targeted protein ubiquitination” (Chemical Science, 2025).

Sequences of proteins named here, by UniProt entry; tags and fusion partners are left off. A change or cut given only in a name is not applied to a line headed by its entry.
UniProt Q9P2I0: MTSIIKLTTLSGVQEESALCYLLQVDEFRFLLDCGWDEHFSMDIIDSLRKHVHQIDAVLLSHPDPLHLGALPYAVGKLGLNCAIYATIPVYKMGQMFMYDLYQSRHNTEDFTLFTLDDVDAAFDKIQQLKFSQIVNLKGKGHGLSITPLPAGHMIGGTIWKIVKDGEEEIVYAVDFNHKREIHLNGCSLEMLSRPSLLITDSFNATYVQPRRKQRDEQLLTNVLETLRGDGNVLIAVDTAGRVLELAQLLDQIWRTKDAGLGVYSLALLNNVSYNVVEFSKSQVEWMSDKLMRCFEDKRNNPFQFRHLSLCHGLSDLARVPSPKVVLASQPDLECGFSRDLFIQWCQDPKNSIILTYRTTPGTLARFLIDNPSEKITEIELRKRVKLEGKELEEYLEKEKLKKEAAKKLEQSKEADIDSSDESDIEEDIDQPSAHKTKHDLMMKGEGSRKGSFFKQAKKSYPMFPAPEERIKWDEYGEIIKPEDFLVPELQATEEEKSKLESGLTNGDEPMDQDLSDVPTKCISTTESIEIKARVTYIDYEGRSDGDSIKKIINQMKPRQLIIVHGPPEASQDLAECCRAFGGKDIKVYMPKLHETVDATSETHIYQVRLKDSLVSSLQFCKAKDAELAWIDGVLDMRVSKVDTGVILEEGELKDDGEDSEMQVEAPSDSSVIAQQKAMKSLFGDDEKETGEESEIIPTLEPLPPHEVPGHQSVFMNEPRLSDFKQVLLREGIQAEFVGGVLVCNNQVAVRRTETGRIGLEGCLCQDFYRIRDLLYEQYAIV
UniProt Q9Y4K1: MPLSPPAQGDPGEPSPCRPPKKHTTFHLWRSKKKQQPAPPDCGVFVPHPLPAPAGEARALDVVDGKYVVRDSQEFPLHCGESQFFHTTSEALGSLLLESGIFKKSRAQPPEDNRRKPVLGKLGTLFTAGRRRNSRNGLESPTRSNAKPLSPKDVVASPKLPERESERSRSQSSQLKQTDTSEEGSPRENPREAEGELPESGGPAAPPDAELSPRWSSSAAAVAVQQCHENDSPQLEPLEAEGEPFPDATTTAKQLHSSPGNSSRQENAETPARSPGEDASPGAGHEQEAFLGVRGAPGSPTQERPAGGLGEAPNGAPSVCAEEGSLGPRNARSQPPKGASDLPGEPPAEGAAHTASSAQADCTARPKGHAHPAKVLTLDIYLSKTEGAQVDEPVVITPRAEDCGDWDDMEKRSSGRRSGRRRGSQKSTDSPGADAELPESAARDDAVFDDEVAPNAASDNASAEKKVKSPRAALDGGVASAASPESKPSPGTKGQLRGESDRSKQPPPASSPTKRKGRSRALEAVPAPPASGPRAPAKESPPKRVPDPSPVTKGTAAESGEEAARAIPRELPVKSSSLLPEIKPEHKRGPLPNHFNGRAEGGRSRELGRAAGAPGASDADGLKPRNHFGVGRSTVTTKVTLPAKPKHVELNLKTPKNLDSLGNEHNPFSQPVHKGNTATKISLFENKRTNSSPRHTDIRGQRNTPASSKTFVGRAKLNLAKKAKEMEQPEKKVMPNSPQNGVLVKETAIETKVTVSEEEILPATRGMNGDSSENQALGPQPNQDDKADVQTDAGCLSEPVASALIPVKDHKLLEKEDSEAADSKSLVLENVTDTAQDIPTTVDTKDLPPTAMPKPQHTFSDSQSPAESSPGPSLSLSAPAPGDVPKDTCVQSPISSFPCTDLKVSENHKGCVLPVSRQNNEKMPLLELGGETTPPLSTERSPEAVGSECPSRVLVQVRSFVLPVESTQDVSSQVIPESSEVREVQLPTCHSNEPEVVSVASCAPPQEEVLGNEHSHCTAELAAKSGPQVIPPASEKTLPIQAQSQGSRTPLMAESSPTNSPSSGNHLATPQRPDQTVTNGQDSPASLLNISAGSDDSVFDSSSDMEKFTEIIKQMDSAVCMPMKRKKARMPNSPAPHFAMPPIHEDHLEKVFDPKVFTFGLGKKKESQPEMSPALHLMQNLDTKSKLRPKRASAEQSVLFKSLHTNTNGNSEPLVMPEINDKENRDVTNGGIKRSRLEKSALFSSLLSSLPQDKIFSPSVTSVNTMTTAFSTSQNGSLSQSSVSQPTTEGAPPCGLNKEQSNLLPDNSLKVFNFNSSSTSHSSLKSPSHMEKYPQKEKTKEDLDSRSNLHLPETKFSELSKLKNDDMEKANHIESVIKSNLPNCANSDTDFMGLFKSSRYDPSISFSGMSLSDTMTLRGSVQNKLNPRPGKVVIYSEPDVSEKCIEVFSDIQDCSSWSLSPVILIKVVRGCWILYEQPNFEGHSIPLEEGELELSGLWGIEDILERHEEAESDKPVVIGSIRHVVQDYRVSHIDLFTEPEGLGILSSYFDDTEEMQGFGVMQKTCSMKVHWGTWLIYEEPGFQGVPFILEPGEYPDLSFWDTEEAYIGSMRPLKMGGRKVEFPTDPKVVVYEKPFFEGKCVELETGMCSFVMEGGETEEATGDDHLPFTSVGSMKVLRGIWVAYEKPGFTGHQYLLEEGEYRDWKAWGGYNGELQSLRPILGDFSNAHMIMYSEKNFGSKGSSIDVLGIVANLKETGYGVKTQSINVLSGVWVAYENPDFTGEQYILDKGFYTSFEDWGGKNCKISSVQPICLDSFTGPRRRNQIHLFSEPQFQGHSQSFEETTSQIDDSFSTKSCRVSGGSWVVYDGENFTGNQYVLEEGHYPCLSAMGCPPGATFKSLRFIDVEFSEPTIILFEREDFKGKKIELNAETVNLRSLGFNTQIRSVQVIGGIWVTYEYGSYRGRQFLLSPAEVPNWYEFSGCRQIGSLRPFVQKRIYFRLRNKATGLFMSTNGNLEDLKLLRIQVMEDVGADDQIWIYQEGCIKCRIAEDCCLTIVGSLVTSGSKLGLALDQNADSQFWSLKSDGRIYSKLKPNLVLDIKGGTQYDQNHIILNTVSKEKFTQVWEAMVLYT
UniProt P29762, whole entry, looked up: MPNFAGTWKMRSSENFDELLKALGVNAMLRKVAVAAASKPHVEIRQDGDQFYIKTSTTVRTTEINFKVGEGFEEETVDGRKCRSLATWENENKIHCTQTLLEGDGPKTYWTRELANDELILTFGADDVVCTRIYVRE
UniProt O75534: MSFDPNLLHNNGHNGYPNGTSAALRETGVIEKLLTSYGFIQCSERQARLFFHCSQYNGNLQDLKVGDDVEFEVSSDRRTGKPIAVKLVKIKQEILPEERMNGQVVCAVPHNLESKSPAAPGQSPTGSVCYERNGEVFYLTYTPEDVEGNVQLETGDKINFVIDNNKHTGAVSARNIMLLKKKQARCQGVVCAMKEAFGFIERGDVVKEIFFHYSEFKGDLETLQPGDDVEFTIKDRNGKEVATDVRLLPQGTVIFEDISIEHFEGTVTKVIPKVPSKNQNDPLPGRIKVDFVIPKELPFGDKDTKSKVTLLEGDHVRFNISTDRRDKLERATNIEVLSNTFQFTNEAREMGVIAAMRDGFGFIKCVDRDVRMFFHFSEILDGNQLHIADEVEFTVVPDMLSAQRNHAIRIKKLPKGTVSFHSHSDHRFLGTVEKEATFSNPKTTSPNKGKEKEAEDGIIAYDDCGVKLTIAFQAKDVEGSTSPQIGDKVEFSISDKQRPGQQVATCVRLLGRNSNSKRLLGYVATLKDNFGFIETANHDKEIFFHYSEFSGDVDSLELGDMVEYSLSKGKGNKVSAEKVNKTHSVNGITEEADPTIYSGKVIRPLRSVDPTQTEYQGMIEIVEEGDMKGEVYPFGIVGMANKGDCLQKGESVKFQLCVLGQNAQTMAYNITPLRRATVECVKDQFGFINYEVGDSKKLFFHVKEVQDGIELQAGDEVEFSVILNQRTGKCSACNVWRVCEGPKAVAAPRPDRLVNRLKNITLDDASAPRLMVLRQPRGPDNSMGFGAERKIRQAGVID
UniProt P14854, whole entry, looked up: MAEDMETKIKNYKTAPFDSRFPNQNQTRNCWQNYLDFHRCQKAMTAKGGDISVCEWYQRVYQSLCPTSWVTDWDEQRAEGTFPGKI
UniProt P50238: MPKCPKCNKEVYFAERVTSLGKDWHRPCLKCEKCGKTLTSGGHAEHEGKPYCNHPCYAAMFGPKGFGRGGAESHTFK
UniProt P14384: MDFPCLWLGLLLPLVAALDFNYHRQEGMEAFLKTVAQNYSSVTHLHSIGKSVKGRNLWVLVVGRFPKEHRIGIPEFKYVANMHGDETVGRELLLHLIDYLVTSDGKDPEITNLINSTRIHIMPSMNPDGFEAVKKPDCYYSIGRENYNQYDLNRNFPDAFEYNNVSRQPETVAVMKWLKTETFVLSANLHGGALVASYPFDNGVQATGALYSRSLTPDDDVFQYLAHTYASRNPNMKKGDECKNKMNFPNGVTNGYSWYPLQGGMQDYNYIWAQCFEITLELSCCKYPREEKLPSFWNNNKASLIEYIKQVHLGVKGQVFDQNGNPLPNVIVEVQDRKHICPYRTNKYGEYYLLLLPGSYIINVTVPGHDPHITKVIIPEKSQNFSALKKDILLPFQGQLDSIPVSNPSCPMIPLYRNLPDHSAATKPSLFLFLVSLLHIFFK
UniProt Q10570: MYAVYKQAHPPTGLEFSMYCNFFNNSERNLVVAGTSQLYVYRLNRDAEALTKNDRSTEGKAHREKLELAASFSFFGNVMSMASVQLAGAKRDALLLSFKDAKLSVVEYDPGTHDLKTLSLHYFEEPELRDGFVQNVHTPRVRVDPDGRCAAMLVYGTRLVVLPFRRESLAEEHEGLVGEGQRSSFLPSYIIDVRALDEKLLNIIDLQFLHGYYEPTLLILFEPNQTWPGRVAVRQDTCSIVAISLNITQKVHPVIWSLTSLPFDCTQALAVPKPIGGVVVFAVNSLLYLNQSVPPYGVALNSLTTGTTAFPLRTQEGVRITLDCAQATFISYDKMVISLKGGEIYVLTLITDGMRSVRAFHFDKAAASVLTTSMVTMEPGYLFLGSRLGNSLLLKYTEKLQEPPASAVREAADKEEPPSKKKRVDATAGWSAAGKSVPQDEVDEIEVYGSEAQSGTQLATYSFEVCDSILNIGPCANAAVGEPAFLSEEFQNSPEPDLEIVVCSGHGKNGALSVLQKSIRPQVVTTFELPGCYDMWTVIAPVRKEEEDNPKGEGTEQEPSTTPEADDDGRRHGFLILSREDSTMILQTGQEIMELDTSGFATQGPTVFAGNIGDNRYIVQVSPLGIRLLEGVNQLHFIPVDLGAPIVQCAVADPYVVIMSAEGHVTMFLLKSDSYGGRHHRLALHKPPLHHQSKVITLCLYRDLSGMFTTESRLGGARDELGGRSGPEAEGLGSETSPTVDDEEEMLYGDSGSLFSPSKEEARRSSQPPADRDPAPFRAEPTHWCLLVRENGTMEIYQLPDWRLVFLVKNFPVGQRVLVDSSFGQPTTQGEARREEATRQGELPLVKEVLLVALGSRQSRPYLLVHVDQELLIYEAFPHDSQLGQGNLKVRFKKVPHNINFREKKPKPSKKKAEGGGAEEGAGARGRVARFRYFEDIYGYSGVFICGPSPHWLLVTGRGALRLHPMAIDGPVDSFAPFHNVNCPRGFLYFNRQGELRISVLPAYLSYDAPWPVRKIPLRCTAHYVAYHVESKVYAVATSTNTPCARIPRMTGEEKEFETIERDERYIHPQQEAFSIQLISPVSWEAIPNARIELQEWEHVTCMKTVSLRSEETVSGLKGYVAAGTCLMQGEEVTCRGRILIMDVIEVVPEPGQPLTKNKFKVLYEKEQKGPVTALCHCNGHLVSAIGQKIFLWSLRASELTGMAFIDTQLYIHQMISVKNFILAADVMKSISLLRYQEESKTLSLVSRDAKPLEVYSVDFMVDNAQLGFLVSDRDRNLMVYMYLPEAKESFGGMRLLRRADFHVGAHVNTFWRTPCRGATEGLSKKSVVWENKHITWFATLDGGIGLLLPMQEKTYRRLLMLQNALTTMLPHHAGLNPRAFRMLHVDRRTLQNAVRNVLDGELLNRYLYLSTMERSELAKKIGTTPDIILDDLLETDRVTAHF
UniProt Q05048: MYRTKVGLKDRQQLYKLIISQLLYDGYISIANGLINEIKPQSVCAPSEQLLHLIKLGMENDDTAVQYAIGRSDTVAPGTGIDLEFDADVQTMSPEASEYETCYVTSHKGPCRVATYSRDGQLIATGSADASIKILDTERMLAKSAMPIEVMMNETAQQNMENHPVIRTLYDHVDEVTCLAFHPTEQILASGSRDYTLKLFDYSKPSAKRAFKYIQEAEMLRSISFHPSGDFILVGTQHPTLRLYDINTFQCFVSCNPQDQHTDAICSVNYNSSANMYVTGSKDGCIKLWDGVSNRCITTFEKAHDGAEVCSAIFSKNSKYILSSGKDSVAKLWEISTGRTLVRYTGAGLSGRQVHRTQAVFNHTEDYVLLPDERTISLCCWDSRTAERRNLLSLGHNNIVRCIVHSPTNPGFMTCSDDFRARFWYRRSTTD

The list shows a part of the results.
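Further: competitive chemoproteomic profiling in live THP-1 cells with an iodoacetamide desthiobiotin (IA-DTB) probe, comparing probe-labelled peptide intensities in compound-treated cells against DMSO-treated controls.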

Compound in this assay: CC1Cc2ccccc2N1C(=O)C1CCCN(C1)C(=O)CCl (mixture of isomers) [TRIM25 ligand 11 (diastereomer mixture)]
Kind of assay: probe-labelled cysteine peptide fold change vs DMSO (competition) (log2 fold change); higher = less target engagement (more negative = stronger competition). To be noted: 50 µM; THP-1; incubation time: 4 h.
On to “CPSF2_Q9P2I0_311_HLSLCHGLSDLAR (UniProt Q9P2I0)”, for which the “probe-labelled cysteine peptide fold change” value was -0.283.

“CRYBG1_Q9Y4K1_503_GCVLPVSR (UniProt Q9Y4K1)”: the “probe-labelled cysteine peptide fold change” value was -0.28.

In the case of “CPT2_P23786_326_VDSAVFCLCLDDFPIK (UniProt P23786)”, the “probe-labelled cysteine peptide fold change” value was determined as 0.111.

“CRABP1_P29762_130_ELANDELILTFGADDVVCTR (UniProt P29762)”: the “probe-labelled cysteine peptide fold change” value is -0.0524.

Consider “CRTAP_O75718_84_DSEAFCHR (UniProt O75718)”, for which the “probe-labelled cysteine peptide fold change” value was 0.257.

As to “CRACR2A_Q9BSW2_220_NELECALK (UniProt Q9BSW2)”, the “probe-labelled cysteine peptide fold change” value came to 0.0608.

On to “CSDE1_O75534_657_FQLCVLGQNAQTMAYNITPLRR (UniProt O75534)”, for which the “probe-labelled cysteine peptide fold change” value is -0.257.

For the target “CTNNBL1_Q8WYA6_320_RHNPSTAEEQEMMENLFDSLCSCLMLSSNR (UniProt Q8WYA6)”, the “probe-labelled cysteine peptide fold change” value is -0.223.

As to “CORO7_P57737_75_RVAHLGCHSDLVTDLDFSPFDDFLLATGSADR (UniProt P57737)”, the “probe-labelled cysteine peptide fold change” value came to 0.476.

Turning to “COX6B1_P14854_30_NCWQNYLDFHR (UniProt P14854)”, the “probe-labelled cysteine peptide fold change” value was -0.0345.

For “CRIP1_P50238_56_PYCNHPCYAAMFGPK (UniProt P50238)”, the “probe-labelled cysteine peptide fold change” value was -0.291.

For the target CPM_P14384_341_KHICPYR (UniProt P14384), the “probe-labelled cysteine peptide fold change” value is -0.119.

Turning to “CPSF1_Q10570_324_ITLDCAQATFISYDK (UniProt Q10570)”, the “probe-labelled cysteine peptide fold change” value was 0.201.

Take “CSDE1_O75534_365_CVDRDVR (UniProt O75534)”: the “probe-labelled cysteine peptide fold change” value came to 0.311.

Take “CPNE3_O75131_202_ISLNSLCYGDMDK (UniProt O75131)”: the “probe-labelled cysteine peptide fold change” value came to 0.0292.

Regarding “CSTF1_Q05048_296_CITTFEK (UniProt Q05048)”, the “probe-labelled cysteine peptide fold change” value came out at 0.14.
